Most values lie at the floor of the assay. Slopes are relative: functional sequences can read slightly below zero.

The test system of the series is Saccharomyces cerevisiae PS128 hsf1 delta, HSF1(1-493) fusion. Briefly: growth estimate (transactivation domain function in HSF1 fusion, heat-shock survival) (a.u. (slope of normalised read count over time)); higher = stronger growth at 37°C, i.e. more transactivation activity. Conditions: library: random library.
For DPRAS, the growth estimate was below -0.25.

In the case of SLMGVDSPGAGEPDRLCNAI, the growth estimate is below -0.25.

With ERPLAGNGLVLMVPTGARCA, the growth estimate was below -0.25.

For RGTARGRRSSRIWRMSSD, the growth estimate is below -0.25.

On to DGLLTTSSRVGQVKDLPVSN, for which the growth estimate is below -0.25.

Consider LDPQLSNGGER, for which the growth estimate is -0.223.

For the substance IVDSRGVIAKC, the growth estimate was below -0.25.

On to VVSLCGKRKSSTSRCRQHEQ, for which the growth estimate is below -0.25.

Take SMLGEQRGATESCSHGHHLA: the growth estimate is below -0.25.

As to TQPIP, the growth estimate is below -0.25.

As to LGGSNHFVSCRASNGHNIRP, the growth estimate is below -0.25.

In the case of EAKLAAGQRCGDELARQSRA, the growth estimate is below -0.25.

Regarding HTP, the growth estimate was below -0.25.

With PGTFGVRTVSYNDSRASLDL, the growth estimate was below -0.25.

Take RSQHLGHSKWQREARSFECP: the growth estimate was below -0.25.

Regarding YAFG, the growth estimate was below -0.25.

In the case of CCRDKDPVFAGAGEAPLQVS, the growth estimate was below -0.25.

On to CIISFGTG, for which the growth estimate is below -0.25.

Turning to FRRSVPRGQSWTLPRDDTRS, the growth estimate was below -0.25.

For TVNDHSLTFIAFAIGQIYEC, the growth estimate was below -0.25.

Consider AIVCPGA, for which the growth estimate is -0.231.

TVWSWLPDPVYRISPGDGYF: the growth estimate was below -0.25.

With LTKMSTWYSWI, the growth estimate is below -0.25.

For the substance TCTGWITR, the growth estimate was below -0.25.

Regarding SVSVTSFPGSN, the growth estimate was below -0.25.

As for PSPVQNAGCGVFA, the growth estimate is below -0.25.

On to WDRPAESASVRCHLIRDLLL, for which the growth estimate is below -0.25.

As to LGGSAEGTDTTCRRS, the growth estimate was below -0.25.

As to TVD, the growth estimate was below -0.25.

With YSSCSISLYIQGKTLAVRRG, the growth estimate was below -0.25.

Take SRRVGLRIPLWRGAK: the growth estimate was below -0.25.

As to LGRRAKAHCRANRPRRFGPA, the growth estimate was below -0.25.

For the substance KRSCLYRVVSRTWSSGVTTI, the growth estimate is below -0.25.

As to QDCKRENS, the growth estimate was below -0.25.

Regarding HSCGSRSAIGPRSSGRASPE, the growth estimate is below -0.25.

In the case of DEF, the growth estimate is below -0.25.

Consider SSTRARKVYNII, for which the growth estimate is below -0.25.

In the case of LTSCPGPAAAVSRGQPKFHE, the growth estimate was below -0.25.

Take RVIW: the growth estimate is below -0.25.

For the substance GDSWAQRYQSAARRFRNNAD, the growth estimate was below -0.25.

Regarding WFF, the growth estimate is below -0.25.

For QVVGDGRGSAVIGVRGGASV, the growth estimate is below -0.25.

Turning to FTGNCQAFLRAGTTSVALSL, the growth estimate was -0.143.

Turning to IFKRAMVMQNSQRLCGPLDP, the growth estimate is below -0.25.

IQNSSGLSSHDLTDCTEGCR: the growth estimate is below -0.25.

Consider DRYE, for which the growth estimate is below -0.25.

As for HNFNSKSRPGKGPCETRHRY, the growth estimate is below -0.25.

For the substance HPLGLPIGSTCTTTAALLCA, the growth estimate is below -0.25.

On to KVAAAAFF, for which the growth estimate is -0.231.

In the case of VGRVAEVLWTQISDTFECPG, the growth estimate is below -0.25.

On to PMISGLFRTKMGCKGARSKS, for which the growth estimate is below -0.25.

On to HRIEDTSVGAQVPYIEGCRP, for which the growth estimate was below -0.25.

As to AVVHNNVDWF, the growth estimate is below -0.25.

Take LQPVSGAITGREMTVMRVGC: the growth estimate was below -0.25.

For the substance LTLPFSSANAVD, the growth estimate was below -0.25.

As to PLYRQLQLCEYPATHGFCPA, the growth estimate is below -0.25.

On to FKHQ, for which the growth estimate was below -0.25.

For the substance WIHPVPELVRIGGVSQRDSR, the growth estimate is below -0.25.

KDL: the growth estimate is below -0.25.

Regarding SSSYLLPVHFVVLGYIIRRR, the growth estimate was below -0.25.

Regarding TVFESDSTVMKRRT, the growth estimate is below -0.25.

With YNVRWIT, the growth estimate is below -0.25.

Turning to RERSF, the growth estimate is below -0.25.

EIIASSCNFHCESRVIGWAV: the growth estimate was below -0.25.

EKGGQPRFMLCL: the growth estimate was below -0.25.

Regarding SISKGPAIPGPSSVARMWAP, the growth estimate was below -0.25.

In the case of RVASLEFRIGPPCAVFRKL, the growth estimate was below -0.25.

Take LYCVGVTVTWS: the growth estimate is below -0.25.

Consider TPRLGKCVTLPGLPGICVF, for which the growth estimate was -0.246.

For the substance IGSSGEW, the growth estimate is below -0.25.

As for SPSSIARWLKIGRKHARSRN, the growth estimate is below -0.25.

AVAEPSVFARFV: the growth estimate was below -0.25.

Regarding FKSCE, the growth estimate is below -0.25.

Regarding IKCVMTSIVA, the growth estimate is below -0.25.

Consider FASLLYVVFDTVVT, for which the growth estimate is below -0.25.

Take KAG: the growth estimate was below -0.25.

With RGGLTHAG, the growth estimate is below -0.25.

With ILVPFHRHAAAIPSAEHTMS, the growth estimate is below -0.25.

For NAFPLCEPYVADVSR, the growth estimate is below -0.25.

Turning to QCCPGFQEVFWKMWLGAMDR, the growth estimate was below -0.25.

Take WGSGETAPAACHRAKHMSHL: the growth estimate was below -0.25.

Take RGEKTTTTTGNQSREG: the growth estimate was below -0.25.

For the substance KFMPRLHATPKNRPRN, the growth estimate is below -0.25.

For TSSTPFRDSGTRLPPLTVCI, the growth estimate was below -0.25.

As for AGARPRSAA, the growth estimate is below -0.25.

PWGQLTLTGCCSPVVGAGEW: the growth estimate is below -0.25.

Turning to LSVRFYSGTDRSNAKPFSKG, the growth estimate was below -0.25.

In the case of VISEAIRTVLAEHLKNKW, the growth estimate is below -0.25.

In the case of VARENVLLPLKRNLLEALNG, the growth estimate was below -0.25.

WHDCRIGGLCVGLVGYN: the growth estimate is -0.246.

Consider LIPYLRNPLSTVVR, for which the growth estimate was below -0.25.

On to YSLDV, for which the growth estimate was below -0.25.

Turning to QAACFAGKRLANFWR, the growth estimate is below -0.25.

Take CEI: the growth estimate is below -0.25.

In the case of TSFA, the growth estimate was below -0.25.

NIAFRFVLAPTCSETDTDRT: the growth estimate was below -0.25.

Regarding GGKATCFLGIYKANQQICRD, the growth estimate was below -0.25.

IEKRGKSARVRHHHLPRRME: the growth estimate is below -0.25.

For VGAYKTSSTPARLVGIPMRS, the growth estimate is below -0.25.

As for INSAQGTIS, the growth estimate is below -0.25.

As to DLRAKGVNVRRAILDHVTRT, the growth estimate was below -0.25.

Consider IHTGSSCGKRVKIKPARIDT, for which the growth estimate was -0.246.

On to LTHMESDCVPVGGADFEVFN, for which the growth estimate is below -0.25.

For YGEHYDLLRERVRMVSENVG, the growth estimate was below -0.25.

For GSASL, the growth estimate was below -0.25.

In the case of FRIPSSESRQEIELCQVRLL, the growth estimate is below -0.25.

In the case of RIGIGSGVRSNSANVHMPRS, the growth estimate was below -0.25.

MDRGRKRAKGPVSHSTLDVS: the growth estimate is below -0.25.

Take DRKCHLVPYGLSS: the growth estimate was below -0.25.

FNCTTLPGW: the growth estimate was below -0.25.

VLKIIDEITVRGDWCVVQGS: the growth estimate is below -0.25.

With PQCLPAFNGTPSGKTNRQSF, the growth estimate was below -0.25.

As for PLGLGVRGSRSSRKLTR, the growth estimate is below -0.25.

With AVESPCGDKLWFARVI, the growth estimate was below -0.25.

The values above are taken from the supplement of paper PMC5949888.
